Source: the supplement of paper PMC8960247

Tested on: 621-102 (TSC2-deficient)
Assay: relative viability vs DMSO (fraction); higher = less cytotoxic
Details: serum: 0.1% FBS, 72 h

Compound: CC(C)[C@H](C(=O)Nc1ccc(C(=O)NO)cc1)c1ccccc1 [AR-42]
- relative viability (0.0128 nM): 1.07
- relative viability (0.064 nM): 1.02
- relative viability (0.32 nM): 0.993
- relative viability (1.6 nM): 0.199
- relative viability (8 nM): 0.9
- relative viability (40 nM): 0.216
- relative viability (200 nM): 0.275
- relative viability (1000 nM): 0.105
- relative viability (5000 nM): 0.0646

Compound: CC(C)NCC(O)COc1ccc(COCCOC(C)C)cc1 (stereo unspecified) [Bisoprolol fumarate]
- relative viability (0.0128 nM): 0.793
- relative viability (0.064 nM): 0.802
- relative viability (0.32 nM): 0.892
- relative viability (1.6 nM): 0.767
- relative viability (8 nM): 0.814
- relative viability (40 nM): 0.742
- relative viability (200 nM): 0.771
- relative viability (1000 nM): 0.885
- relative viability (5000 nM): 0.777

Compound: Nc1cc(C(F)(F)F)c(-c2cc(N3CCOCC3)nc(N3CCOCC3)n2)cn1 [BKM120 (NVP-BKM120)]
- relative viability (0.0128 nM): 0.939
- relative viability (0.064 nM): 1.02
- relative viability (0.32 nM): 0.97
- relative viability (1.6 nM): 0.894
- relative viability (8 nM): 0.929
- relative viability (40 nM): 1.02
- relative viability (200 nM): 0.877
- relative viability (1000 nM): 0.852
- relative viability (5000 nM): 0.0802

Compound: O=c1oc2cc(O)ccc2s1 [Tioxolone]
- relative viability (0.0128 nM): 0.878
- relative viability (0.064 nM): 0.953
- relative viability (0.32 nM): 0.873
- relative viability (1.6 nM): 0.906
- relative viability (8 nM): 0.768
- relative viability (40 nM): 0.715
- relative viability (200 nM): 0.713
- relative viability (1000 nM): 0.735
- relative viability (5000 nM): 0.777

Compound: Oc1ncnc2[nH]ncc12 [Allopurinol]
- relative viability (0.0128 nM): 0.435
- relative viability (0.064 nM): 0.613
- relative viability (0.32 nM): 0.55
- relative viability (1.6 nM): 0.582
- relative viability (8 nM): 0.638
- relative viability (40 nM): 0.643
- relative viability (200 nM): 0.563
- relative viability (1000 nM): 0.56
- relative viability (5000 nM): 0.644

Compound: Cn1c(N2CCCCS2(=O)=O)nc(C(=O)NCc2ccc(F)cc2)c(O)c1=O
- relative viability (0.0128 nM): 0.803
- relative viability (0.064 nM): 0.757
- relative viability (0.32 nM): 0.852
- relative viability (1.6 nM): 0.858
- relative viability (8 nM): 0.843
- relative viability (40 nM): 0.859
- relative viability (200 nM): 0.848
- relative viability (1000 nM): 0.763
- relative viability (5000 nM): 0.834

Compound: CCCCCCCCCCCCCCCC(=O)OC[C@H](O)[C@H]1OC(=O)C(O)=C1O [L-Ascorbyl 6-palmitate]
- relative viability (0.0128 nM): 0.109
- relative viability (0.064 nM): 0.0552
- relative viability (0.32 nM): 0.67
- relative viability (1.6 nM): 0.72
- relative viability (8 nM): 0.149
- relative viability (40 nM): 0.681
- relative viability (200 nM): 0.597
- relative viability (1000 nM): 0.728
- relative viability (5000 nM): 0.171

Compound: Cc1cccc(-c2[nH]c(C(C)(C)C)nc2-c2ccc3nccnc3c2)n1
- relative viability (0.0128 nM): 0.982
- relative viability (0.064 nM): 0.937
- relative viability (0.32 nM): 0.892
- relative viability (1.6 nM): 0.907
- relative viability (8 nM): 0.662
- relative viability (40 nM): 0.877
- relative viability (200 nM): 0.79
- relative viability (1000 nM): 0.773
- relative viability (5000 nM): 0.755

Compound: O=C(Nc1cccnc1)N1CCC(Cc2cccc(Oc3ccc(C(F)(F)F)cn3)c2)CC1 [PF-3845]
- relative viability (0.0128 nM): 0.882
- relative viability (0.064 nM): 0.993
- relative viability (0.32 nM): 0.922
- relative viability (1.6 nM): 0.853
- relative viability (8 nM): 0.656
- relative viability (40 nM): 0.608
- relative viability (200 nM): 0.655
- relative viability (1000 nM): 0.734
- relative viability (5000 nM): 0.41

Compound: CN(C)c1ccc(-c2nc3ncc(Cl)c(N4CCN(CC(=O)Nc5nccs5)CC4)c3[nH]2)cc1
- relative viability (0.0128 nM): 0.927
- relative viability (0.064 nM): 0.956
- relative viability (0.32 nM): 0.965
- relative viability (1.6 nM): 1.03
- relative viability (8 nM): 0.888
- relative viability (40 nM): 0.874
- relative viability (200 nM): 0.752
- relative viability (1000 nM): 0.343
- relative viability (5000 nM): 0.0109

Compound: CO[C@H]1C[C@@H]2CC[C@@H](C)[C@@](O)(O2)C(=O)C(=O)N2CCCC[C@H]2C(=O)O[C@H]([C@H](C)C[C@@H]2CC[C@@H](OC(=O)C(C)(CO)CO)[C@H](OC)C2)CC(=O)[C@H](C)/C=C(\C)[C@@H](O)[C@@H](OC)C(=O)[C@H](C)C[C@H](C)/C=C/C=C/C=C/1C
- relative viability (0.0128 nM): 0.858
- relative viability (0.064 nM): 0.908
- relative viability (0.32 nM): 0.823
- relative viability (1.6 nM): 0.825
- relative viability (8 nM): 0.691
- relative viability (40 nM): 0.369
- relative viability (200 nM): 0.262
- relative viability (1000 nM): 0.201
- relative viability (5000 nM): 0.146

Compound: CN(C/C=C/C#CC(C)(C)C)Cc1cccc2ccccc12 [Terbinafine hydrochloride]
- relative viability (0.0128 nM): 0.676
- relative viability (0.064 nM): 0.629
- relative viability (0.32 nM): 0.539
- relative viability (1.6 nM): 0.609
- relative viability (8 nM): 0.51
- relative viability (40 nM): 0.566
- relative viability (200 nM): 0.457
- relative viability (1000 nM): 0.612
- relative viability (5000 nM): 0.559

Compound: CC1=C(C(=O)Nc2cc3cn[nH]c3cc2F)C(c2ccc(C(F)(F)F)cc2)CC(=O)N1 (stereo unspecified)
- relative viability (0.0128 nM): 0.834
- relative viability (0.064 nM): 0.734
- relative viability (0.32 nM): 0.819
- relative viability (1.6 nM): 0.712
- relative viability (8 nM): 0.647
- relative viability (40 nM): 0.733
- relative viability (200 nM): 0.75
- relative viability (1000 nM): 0.663
- relative viability (5000 nM): 0.509

Compound: Cc1nc(=O)c2cc(CN(C)c3ccc(C(=O)N[C@@H](CCC(=O)O)C(=O)O)s3)ccc2[nH]1 [Raltitrexed]
- relative viability (0.0128 nM): 0.974
- relative viability (0.064 nM): 0.905
- relative viability (0.32 nM): 0.866
- relative viability (1.6 nM): 1.11
- relative viability (8 nM): 0.922
- relative viability (40 nM): 0.958
- relative viability (200 nM): 0.906
- relative viability (1000 nM): 0.867
- relative viability (5000 nM): 0.727

Compound: COc1cc2ncnc(Nc3cccc(Br)c3)c2cc1OC
- relative viability (0.0128 nM): 0.714
- relative viability (0.064 nM): 0.831
- relative viability (0.32 nM): 0.916
- relative viability (1.6 nM): 0.826
- relative viability (8 nM): 0.861
- relative viability (40 nM): 0.874
- relative viability (200 nM): 0.874
- relative viability (1000 nM): 0.781
- relative viability (5000 nM): 0.142

Compound: CN1CCC[C@@H]1CCO[C@](C)(c1ccccc1)c1ccc(Cl)cc1 [Clemastine Fumarate]
- relative viability (0.0128 nM): 0.717
- relative viability (0.064 nM): 0.539
- relative viability (0.32 nM): 0.572
- relative viability (1.6 nM): 0.681
- relative viability (8 nM): 0.595
- relative viability (40 nM): 0.609
- relative viability (200 nM): 0.582
- relative viability (1000 nM): 0.656
- relative viability (5000 nM): 0.671

Compound: CCC(C)(Oc1ccc(C2(c3ccc(OC(C)(CC)C(=O)O)cc3)CCCCC2)cc1)C(=O)O (stereo unspecified) [Clinofibrate]
- relative viability (0.0128 nM): 0.681
- relative viability (0.064 nM): 0.767
- relative viability (0.32 nM): 0.706
- relative viability (1.6 nM): 0.76
- relative viability (8 nM): 0.709
- relative viability (40 nM): 0.938
- relative viability (200 nM): 0.729
- relative viability (1000 nM): 0.691
- relative viability (5000 nM): 0.73

Compound: CC(=O)SCC(Cc1ccccc1)C(=O)NCC(=O)OCc1ccccc1 (stereo unspecified) [Racecadotril]
- relative viability (0.0128 nM): 0.638
- relative viability (0.064 nM): 0.778
- relative viability (0.32 nM): 0.834
- relative viability (1.6 nM): 0.894
- relative viability (8 nM): 0.915
- relative viability (40 nM): 0.89
- relative viability (200 nM): 0.971
- relative viability (1000 nM): 0.829
- relative viability (5000 nM): 0.87

Compound: Clc1ccc(C(Cn2ccnc2)OCc2c(Cl)cccc2Cl)c(Cl)c1 (stereo unspecified) [Isoconazole nitrate]
- relative viability (0.0128 nM): 0.965
- relative viability (0.064 nM): 0.923
- relative viability (0.32 nM): 0.994
- relative viability (1.6 nM): 0.98
- relative viability (8 nM): 0.92
- relative viability (40 nM): 0.827
- relative viability (200 nM): 0.723
- relative viability (1000 nM): 0.644
- relative viability (5000 nM): 0.0115

Counter-ions that a name gives are not always drawn. Single values of this set are uncertain.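 The cells are immortalized human renal angiomyolipoma cells carrying an empty vector, so TSC2 stays lost. Viability was read by a luminescent ATP assay and normalized to vehicle-treated wells on each plate, in low-serum medium where TSC2-rescued cells do not grow.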
